Experimental data: paper PMC10163288
The other results are listed elsewhere or left out.

B1: il2ra_site1_2b5i_sap_10_mot_HHH_b1_01419_af2_000000080_0001_42_53_H_._HHH_b2_00817_0001_0000100005_0000001_0_0001_af2pred_dldesign_0_af2pred (protein)
chain: SSSSDEIYDLYRKALELYKAGKYEEALELLKKAKKLAKEKNDEKIIKDLDYLIELVEKSLSSSSS
B2: il2ra_site2_3nfp_normal_mot_HHH_b1_04762_000000120_0001_42_54_H_._HHH_b1_01332_af2_0001_0000400017_0000001_0 (protein)
chain: SSSSSDAEEYLRAALLLAREAIEQGDEEQAEKLLRLIRKLAEDAKDEEALREAEELLRLVGSSSS
B3: il2ra_site2_2erj_sap_19_mot_HHH_b1_06697_000000025_0001_41_54_H_._HHH_b1_04451_0001_0000600031_0000001_0_0001 (protein)
chain: DEEHEAAVIVWKLNDFDLWSALLDLLRLKAHGTLTPELEELLEQIVELILNGDPEEARRLAKEVQ
B4: il2ra_site2_2erj_sap_15_mot_HHH_b1_02408_000000223_0001_1_20_H_._HHH_b1_08334_0001_0000600027_0000001_1_0001 (protein)
chain: SSSSSDLHELYELANLLMELLHKGDREEFEHIYEEAEELAKELDSPNAREFIEFLFRELHSSSSS
B5: il2ra_site2_3nfp_normal_mot_HHH_b2_07007_000000117_0001_21_37_H_._HHH_b1_07250_af2_0001_0000100001_0000001_0 (protein)
chain: SSSSSEEERIEELLEQIREAIEEGDEEKARRLLQEVTNLVFELRDFEKFIEVLRLAQLLLSSSSS
B6: il2ra_site1_1z92_sap_13_mot_HHH_b2_01038_000000100_0001_1_17_H_._HHH_b1_03230_0001_0000800041_0000001_0_0001_af2pred_0001_af2pred_1 (protein)
chain: SDERSLRRIAESASKLAGVTSVEVRVENGHVTVHVEADDDEAEALLRDLRQFAEFLGLEVEITIE
B7: il2ra_site2_3nfp_sap_23_mot_HHH_b2_07186_000000029_0001_1_18_H_._HHH_b2_02278_0001_0000100015_0000001_1_0001 (protein)
chain: SSSSDVEELIEEARELIEEGDTLRAFEALQEATELARELGDPELLERLDELSQAILEREGSSSSS
B8: il2ra_site2_2erj_normal_mot_af86707857d369f3e1d85dcabc5f9321_0001_000000201_0001_14_29_H_._HHH_b1_08035_af2_0001_0000400017_0000001_0 (protein)
chain: SSSSDELEELLEQARELIEEGDPEEALKVLSEAFELAYRLGDHRAAAEIIELAHQVIRSESSSSS
B9: il2ra_site1_1z92_normal_mot_HHH_b1_05897_000000193_0001_23_40_H_._HEEHE_3088_af2_0001_0000300010_0000001_0_af2pred_0001_af2pred (protein)
chain: DDEEDVERAVEELARHAGVPEVEVSRSNGEFSVTFHGDEDYARAASRAVEIILRSAGIEVEVRTE
B10: il2ra_site1_3nfp_normal_mot_e80b558ee5422d85aa46efdc370d0602_0001_af2_000000114_0001_54_65_H_._HHH_b1_06938_af2_0001_0000100002_0000001_0_1_af2pred_0001_af2pred … (protein)
chain: SSSSDSHEFLEKLVEEAFRRNDKHQLKALIRMIEHALEKHGDPEVEELLKEARELLEELRSSSSS
B11: il2ra_site2_3nfp_normal_mot_HHH_b1_08076_af2_000000138_0001_43_55_H_._HHH_b2_03973_0001_0000300011_0000001_0 (protein)
chain: SSSSDVEEAAERLLELAILRLREEGDEETVEELEELLEQYKETGDPQVLHEALQIAVRALSSSSS
B12: il2ra_site1_2b5i_sap_27_mot_e4f16f412d24973e63efe4e4a8bb3ce7_0001_1_af2_000000119_0001_1_13_H_._HHH_b2_04792_0001_0000100012_0000001_0_0001_af2pred_dldesign_0_a … (protein)
chain: SSSSSEEIRELVEELLEEAKKLKDKKERYKLLKLALRLARKHNDEELIAKVEAFLKEVSKSSSSS
B13: il2ra_site2_3nfp_normal_mot_HHH_b2_04230_000000235_0001_39_52_H_._72a79b14e1a0e827e78e129a6f5f8f0c_0001_1_0001_0000300027_0000001_0 (protein)
chain: DQELSQRIYELAREGDPVAFLLYALLAEVAYKGDPELRRLLEEALEALERGNPEEAEEIVHKALQ
B14: il2ra_site1_1z92_sap_14_mot_HHH_b1_00561_af2_000000294_0001_1_19_H_._HHH_b2_00438_0001_0000300040_0000001_0_0001 (protein)
chain: SLEELEEEVKEAAENNDPELLRELLERLEEISGDPRLATQYLVILIAKVLNIPPEEAKKIVEEVK
B15: il2ra_site1_1z92_normal_mot_3d621733409fa4d2bc95fa1761ba6d8e_0001_af2_000000005_0001_1_12_H_._31bff7180b20e3ed47766ceefd9934be_0001_0001_0000200020_0000001_0_af … (protein)
chain: DEEEELARLIREAVEKNDPELLREVLEELEEKLGDPKRAVELFFRLLKLAGLSPREIFEAAQLVL
B16: il2ra_site2_3nfp_normal_mot_HHH_b1_05437_000000005_0001_40_57_H_._HHH_b2_06891_0001_0000200018_0000001_0 (protein)
chain: SSSSSSREEVEELLRQAEELYERGNPEEARKLLAEATHIAYETGDFEAFALVAEVLTRLEQSSSS
B17: il2ra_site1_3nfp_normal_mot_ems_3hM_3354_af2_000000165_0001_44_63_H_._HEEHE_0134_af2_0001_0000200023_0000001_0_af2pred_0001_af2pred_swapped (protein)
chain: NEEEEVRRAIEEVAEHVGVPSVTVEVEDGHIEVTFKGDEQDARAAALFVERALKSLGLSAEVTVK
B18: il2ra_site2_2erj_normal_mot_5ab283b237ac2ed796690f09fe12d960_0001_000000016_0001_18_34_H_._HHH_b1_00097_0001_0000200008_0000001_0_af2pred_0001_1_af2pred_swapped (protein)
chain: SSSSDEEEREELEQLIEELVKELGLSEEQKEHLELSLRNALEAGVDVESIKLYLELIAKMLSSSS

Target: il2ra, P01589
Assay: yeast display titration

Apparent Kd, inactive:
B1 no binding seen
B2 no binding seen
B3 no binding seen
B4 no binding seen
B5 no binding seen
B6 no binding seen
B7 no binding seen
B8 no binding seen
B9 no binding seen
B10 no binding seen
B11 no binding seen
B12 no binding seen
B13 no binding seen
B14 > 105 nM
B15 no binding seen
B16 no binding seen
B17 no binding seen
B18 no binding seen

Not a retest: an excerpt of the list.
Apparent Kd, inactive:
B1 no binding seen
B2 no binding seen
B3 no binding seen
B4 no binding seen
B5 no binding seen
